# The list shows a part of the results. These are further read-outs of the screen, such as a control signal, another cell line or another target. No call is given for them. Most of these compounds were active or inconclusive in the main read-out, so they are no random draw. The note in brackets gives the kind of curve behind each potency; many fits are weak.
# Test: qHTS Assay to Find Inhibitors of Chronic Active B-Cell Receptor Signaling
# Settings: ABC-DLBCL IkBa-CBG/CBR reporter, luminescence ratio (green luciferase fused to IkBa over red control in TMD8 lymphoma cells), 4 h
# Summary of the method: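 TMD8 human ABC-DLBCL cells with doxycycline-inducible IκBα–green luciferase fusion and unfused red luciferase, in 0.5% FBS medium; compounds up to 46 uM, 4 h at 37C. Green/red luminescence ratio, filter-overlap corrected, fitted to concentration-response curves.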
# [1] = measured here: CBR red luminescence, cell number
# [2] = measured here: IkBa-CBG green luminescence
Compound,AC50 [1],AC50 [2]
CCOC(=O)c1cc(-c2ccc(OC)cc2)n(CCC(=O)NCCc2ccc(OCC)c(OCC)c2)c1C,"3.16 µM [rising, full curve, poor fit]",
CCOC(=O)CCCCCN1C(=O)c2cccc3cccc(c23)C1=O,"7.08 µM [falling, full curve]",
Cc1nc2c(cc(Oc3ccc(S(=O)(=O)N4CCOCC4)cn3)c3ccsc32)s1,"35.5 µM [falling, single point]",
O=C(N/N=C/C(Br)=C\c1ccccc1)c1ccco1,"35.5 µM [falling, single point]","11.2 µM [falling, partial curve, poor fit]"
Cc1ccc(-c2nnc(N(C)C(=O)c3ccccn3)s2)cn1,"0.00517 µM [rising, full curve, poor fit]",
CN(Cc1ccc(Cl)cc1)C(=O)CCl,"11.2 µM [falling, partial curve, poor fit]",
Oc1ccccc1N=Cc1c(O)ccc2ccccc12,"10 µM [falling, partial curve]",
Cc1nc2c(oc3ccc(Cl)cc32)c(=O)[nH]1,"10 µM [falling, partial curve, poor fit]",
COc1cc(CNc2ccc(CNc3ncn[nH]3)cc2)cc(Cl)c1OCc1ccccc1,"29.1 µM [falling, single point]",
CC1(C)Cc2ccccc2C(NNC(=O)c2ccccc2)=N1,"6.31 µM [falling, full curve]",
N#CCSc1nnc(Cc2cccc3ccccc23)n1C1CCCCC1,"35.5 µM [falling, single point]",
CCOC(=O)CC1=C(C(=O)OCC)C(c2ccncc2)C(C#N)=C(N)O1 (stereo not drawn),"35.5 µM [falling, single point]",
COc1ccccc1C(=O)NC(CCSC)C(=O)NNC(=O)C(C)Oc1ccccc1F (stereo not drawn),"23.1 µM [falling, partial curve]",
COc1cc(OC)c(NC(=O)CSc2nc3ccncc3[nH]2)cc1Cl,"4.11 µM [rising, full curve, poor fit]",
CNC(=S)NNC(=O)c1cn(C)nc1C,"12.6 µM [falling, partial curve]",
CCC(NC(=S)NCc1ccc(F)cc1)c1ccc(C(C)C)cc1 (stereo not drawn),"20 µM [falling, single point]",
Cc1ccc(C)c2sc(NC(=O)c3nc4ccccc4s3)nc12,"0.058 µM [falling, full curve]",
CCc1ccc(Nc2ccc(C(=O)O)cc2[N+](=O)[O-])cc1,"28.2 µM [falling, single point]",
Cc1nn(-c2ccccc2)c(C)c1/C=N/NC(=O)c1cc(-c2cccc3ccccc23)n[nH]1,"11.6 µM [rising, partial curve]",
COc1ccccc1-c1nnc(SCC(=O)Nc2ccc(N3CCOCC3)cc2)n1N,"29.1 µM [rising, single point]",
CCCCSc1cc(C)nc(N)n1,"22.4 µM [rising, partial curve, poor fit]",

# A portion taken from the entries so far, for reference:
Compound,AC50 [1],AC50 [2]
Cc1nc2c(oc3ccc(Cl)cc32)c(=O)[nH]1,"10 µM [falling, partial curve, poor fit]",
COc1cc(CNc2ccc(CNc3ncn[nH]3)cc2)cc(Cl)c1OCc1ccccc1,"29.1 µM [falling, single point]",
CC1(C)Cc2ccccc2C(NNC(=O)c2ccccc2)=N1,"6.31 µM [falling, full curve]",
N#CCSc1nnc(Cc2cccc3ccccc23)n1C1CCCCC1,"35.5 µM [falling, single point]",
CCOC(=O)CC1=C(C(=O)OCC)C(c2ccncc2)C(C#N)=C(N)O1 (stereo not drawn),"35.5 µM [falling, single point]",
COc1ccccc1C(=O)NC(CCSC)C(=O)NNC(=O)C(C)Oc1ccccc1F (stereo not drawn),"23.1 µM [falling, partial curve]",
COc1cc(OC)c(NC(=O)CSc2nc3ccncc3[nH]2)cc1Cl,"4.11 µM [rising, full curve, poor fit]",
CNC(=S)NNC(=O)c1cn(C)nc1C,"12.6 µM [falling, partial curve]",
CCC(NC(=S)NCc1ccc(F)cc1)c1ccc(C(C)C)cc1 (stereo not drawn),"20 µM [falling, single point]",
Cc1ccc(C)c2sc(NC(=O)c3nc4ccccc4s3)nc12,"0.058 µM [falling, full curve]",
CCc1ccc(Nc2ccc(C(=O)O)cc2[N+](=O)[O-])cc1,"28.2 µM [falling, single point]",
Cc1nn(-c2ccccc2)c(C)c1/C=N/NC(=O)c1cc(-c2cccc3ccccc23)n[nH]1,"11.6 µM [rising, partial curve]",

# Additional records.

Compound,AC50 [1],AC50 [2]
COc1cccc(NC(=O)c2ccccc2OCc2c(C)noc2C)c1,"2.06 µM [rising, partial curve, poor fit]",
c1ccc(Cn2cc(-c3cccnc3)cn2)cc1,"29.1 µM [falling, single point]",
O=C(Nc1ccccc1)c1ccc(NCCc2ccccc2)c([N+](=O)[O-])c1,"1.46 µM [rising, full curve, poor fit]",
O=C(N/N=C/c1ccsc1)c1ccccn1,"10 µM [falling, partial curve]",
COc1cc2sc3ccc(-c4ccc(CN5CCOCC5)cc4)cc3c(=O)c2cc1OC,"8.2 µM [falling, partial curve, poor fit]",
O=C(CC1Nc2ccccc2NC1=O)c1ccccc1 (stereo not drawn),"2.51 µM [falling, full curve]",
O=C(NCc1n[nH]c(=O)c2ccccc12)C1CC(=O)N(c2ccc(Cl)cc2)C1 (stereo not drawn),"20.6 µM [falling, single point]",
COc1cc(C(=O)NCc2nnc(SCC(=O)Nc3nc4ccccc4s3)o2)cc(OC)c1OC,,"23.1 µM [falling, single point]"
CC(=O)c1ccc(Nc2ccc(-c3ccccc3F)nn2)cc1,"35.5 µM [falling, single point]",
CC[C@]12c3[nH]c4ccc(OC)cc4c3CCN1C(=O)C(CC(=O)NCC13CC4CC(CC(C4)C1)C3)C[C@@H]2C(=O)N1CCN(C(=O)c2ccco2)CC1 (stereo partly drawn),"11.6 µM [falling, partial curve]",
CCOC(=O)c1c(C)n(C)c2cc(-c3cccc(C(F)(F)F)c3)c(O)cc12,"23.1 µM [rising, single point]",
CC(=O)Nc1cc(-c2nc3ccccc3o2)ccc1Cl,"3.55 µM [rising, full curve, poor fit]",
O=C1C2C3C=CC(CO)(O3)C2C(=O)N1c1ccccc1-c1ccccc1 (stereo not drawn),"5.01 µM [falling, partial curve]",
Cc1[nH]c2ccccc2c1C(=O)C(C)OC(=O)c1ccc([N+](=O)[O-])o1 (stereo not drawn),"35.5 µM [falling, single point]",
CCc1ccccc1NC(=O)c1ccc(-c2csc(C)n2)cc1,"2.24 µM [falling, full curve]",
COC(=O)c1cccc(NC(=O)c2onc3c2CCCC3)c1,"20.6 µM [falling, single point]",
COc1cc(-c2nc(C)c(C(C)=O)n2O)ccc1OCC(=O)Nc1ccc(F)cc1,"10 µM [falling, partial curve, poor fit]",
Cc1onc(-c2ccccc2Cl)c1C(=O)Nc1cccc(S(=O)(=O)N2CCOCC2)c1,"20.6 µM [rising, partial curve, poor fit]",
Cc1ccc(CN2CCN(C/C=C/c3ccc(F)cc3)CC2CCO)o1 (stereo not drawn),"14.1 µM [falling, single point]",
O=C(COC(=O)c1ccc(O)cc1O)Nc1ccc(Cl)cn1,"6.31 µM [falling, single point]",
Cc1cccc(C)c1NC(=S)NCCc1ccc(O)c(O)c1,"15.8 µM [falling, single point]",
